{
  "source": "the supplement of paper PMC8728848",
  "binders": {"B1": {"name": "LF82 (Escherichia coli) (protein)", "chain": "ADWGPCRTASGDPFIFVTSFTKNIQNPTDNVTGQTYPDFYQWALGDKYSGVCECPSPNPTEARPTLYKTESTLAAGHNSTYFKITNNLEVSTRVYIANVGNVQVPFINKSNSQPGRECDQPTFGWTTGSKGQLSLYIAKPFVGEQNIPQTIIVSVFGTKKENVYSSVPISQVLLSGKVTVTQGCELAAGTSLDIDFGEYQAHDFKGRTGQPPQNVQKIQKELTFNCTNISDGVHIYLSLEGTPNAAYPSAISLGNADVGAVIEDGKGNILKPNDSNSLLEMNPGSLYEYVKRKVTTTITAYPVSTTGKLPAAGDYSGVATMHVELDGGGGGGGGGGATTDLGAKGTLKFSLKISQGHHHHHH"}},
  "experiment_in_all_cases": "glycan array binding signal (z-score within array); higher = stronger binding",
  "conditions_in_all_cases": "glycan notation: IUPAC condensed, linker removed",
  "key": {"[1]": {"target": "Fuc(a1-2)[GalNAc(a1-3)]Gal(b1-3)GlcNAc(b1-6)GalNAc", "in_short": "(§1)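 Glycan array binding is given as a within-array Z-score, which can be read as non-binding when negative. The arrays, 3228 of them, came from the Consortium for Functional Glycomics database and were retained only where the protein sequence was available. Z-scores were averaged across arrays of the same protein sequence at different concentrations or buffers and across linkers.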"}, "[2]": {"target": "Fuc(a1-2)[GalNAc(a1-3)]Gal(b1-4)Glc", "in_short": "as §1"}, "[3]": {"target": "Fuc(a1-2)[GalNAc(a1-3)]Gal(b1-4)GlcNAc", "in_short": "as §1"}, "[4]": {"target": "Fuc(a1-2)[GalNAc(a1-3)]Gal(b1-4)GlcNAc(b1-2)Man", "in_short": "as §1"}, "[5]": {"target": "Fuc(a1-2)[GalNAc(a1-3)]Gal(b1-4)GlcNAc(b1-2)Man(a1-3)[Fuc(a1-2)[GalNAc(a1-3)]Gal(b1-4)GlcNAc(b1-2)Man(a1-6)]Man(b1-4)GlcNAc(b1-4)GlcNAc", "in_short": "as §1"}, "[6]": {"target": "Fuc(a1-2)[GalNAc(a1-3)]Gal(b1-4)GlcNAc(b1-2)Man(a1-3)[Fuc(a1-2)[GalNAc(a1-3)]Gal(b1-4)GlcNAc(b1-2)Man(a1-6)]Man(b1-4)GlcNAc(b1-4)[Fuc(a1-6)]GlcNAc", "in_short": "as §1"}, "[7]": {"target": "Fuc(a1-2)[GalNAc(a1-3)]Gal(b1-4)GlcNAc(b1-3)Gal(b1-4)GlcNAc", "in_short": "as §1"}, "[8]": {"target": "Fuc(a1-2)[GalNAc(a1-3)]Gal(b1-4)GlcNAc(b1-3)Gal(b1-4)GlcNAc(b1-3)Gal(b1-4)GlcNAc", "in_short": "as §1"}, "[9]": {"target": "Fuc(a1-2)[GalNAc(a1-3)]Gal(b1-4)GlcNAc(b1-3)GalNAc", "in_short": "as §1"}, "[10]": {"target": "Fuc(a1-2)[GalNAc(a1-3)]Gal(b1-4)GlcNAc(b1-3)[Fuc(a1-2)[GalNAc(a1-3)]Gal(b1-4)GlcNAc(b1-6)]GalNAc", "in_short": "as §1"}, "[11]": {"target": "Fuc(a1-2)[GalNAc(a1-3)]Gal(b1-4)GlcNAc(b1-6)GalNAc", "in_short": "as §1"}, "[12]": {"target": "Fuc(a1-2)[GalNAc(a1-3)]Gal(b1-4)[Fuc(a1-3)]GlcNAc", "in_short": "as §1"}, "[13]": {"target": "Fuc(a1-2)[GalNAc(a1-3)]Gal(b1-4)[Fuc(a1-3)]GlcNAc(b1-3)GalNAc", "in_short": "as §1"}, "[14]": {"target": "Fuc(a1-2)[GalNAc(a1-4)]Gal(b1-4)GlcNAc", "in_short": "as §1"}, "[15]": {"target": "Fuc(a1-2)[GalNAc(b1-3)]Gal", "in_short": "as §1"}, "[16]": {"target": "Fuc(a1-3)GlcNAc", "in_short": "as §1"}, "[17]": {"target": "Fuc(a1-3)[Gal(b1-4)]Glc6S", "in_short": "as §1"}, "[18]": {"target": "Fuc(a1-3)[Gal(b1-4)]GlcNAc", "in_short": "as §1"}, "[19]": {"target": "Fuc(a1-3)[Gal(b1-4)]GlcNAc(b1-2)Man", "in_short": "as §1"}, "[20]": {"target": "Fuc(a1-3)[Gal(b1-4)]GlcNAc(b1-2)Man(a1-3)[Fuc(a1-3)[Gal(b1-4)]GlcNAc(b1-2)Man(a1-6)]Man(b1-4)GlcNAc(b1-4)GlcNAc", "in_short": "as §1"}, "[21]": {"target": "Fuc(a1-3)[Gal(b1-4)]GlcNAc(b1-2)Man(a1-3)[Fuc(a1-3)[Gal(b1-4)]GlcNAc(b1-2)Man(a1-6)]Man(b1-4)GlcNAc(b1-4)[Fuc(a1-6)]GlcNAc", "in_short": "as §1"}, "[22]": {"target": "Fuc(a1-3)[Gal(b1-4)]GlcNAc(b1-3)Gal(b1-3)[Fuc(a1-4)]GlcNAc", "in_short": "as §1"}, "[23]": {"target": "Fuc(a1-3)[Gal(b1-4)]GlcNAc(b1-3)Gal(b1-4)[Fuc(a1-3)]GlcNAc", "in_short": "as §1"}, "[24]": {"target": "Fuc(a1-3)[Gal(b1-4)]GlcNAc(b1-3)Gal(b1-4)[Fuc(a1-3)]GlcNAc(b1-3)Gal(b1-4)[Fuc(a1-3)]GlcNAc", "in_short": "as §1"}, "[25]": {"target": "Fuc(a1-3)[Gal(b1-4)]GlcNAc(b1-3)GalNAc", "in_short": "as §1"}, "[26]": {"target": "Fuc(a1-3)[Gal(b1-4)]GlcNAc(b1-6)GalNAc", "in_short": "as §1"}, "[27]": {"target": "Fuc(a1-3)[Gal(b1-4)]GlcNAc(b1-6)[Gal(b1-3)GlcNAc(b1-3)]Gal(b1-4)Glc", "in_short": "as §1"}, "[28]": {"target": "Fuc(a1-3)[Gal(b1-4)]GlcNAc6S", "in_short": "as §1"}, "[29]": {"target": "Fuc(a1-3)[Gal3S(b1-4)]Glc", "in_short": "as §1"}, "[30]": {"target": "Fuc(a1-3)[Gal3S(b1-4)]GlcNAc", "in_short": "as §1"}, "[31]": {"target": "Fuc(a1-3)[Gal3S(b1-4)]GlcNAc6S", "in_short": "as §1"}, "[32]": {"target": "Fuc(a1-3)[GalNAc(b1-4)]GlcNAc", "in_short": "as §1"}, "[33]": {"target": "Fuc(a1-3)[GalNAc(b1-4)]GlcNAc6S", "in_short": "as §1"}, "[34]": {"target": "Fuc(a1-4)GlcNAc", "in_short": "as §1"}, "[35]": {"target": "Fuc(b1-3)GlcNAc", "in_short": "as §1"}, "[36]": {"target": "Gal(a1-2)Gal", "in_short": "as §1"}, "[37]": {"target": "Gal(a1-3)Gal", "in_short": "as §1"}, "[38]": {"target": "Gal(a1-3)Gal(b1-3)GlcNAc", "in_short": "as §1"}, "[39]": {"target": "Gal(a1-3)Gal(b1-3)GlcNAc(b1-2)Man", "in_short": "as §1"}, "[40]": {"target": "Gal(a1-3)Gal(b1-3)GlcNAc(b1-2)Man(a1-3)[Gal(a1-3)Gal(b1-3)GlcNAc(b1-2)Man(a1-6)]Man(b1-4)GlcNAc(b1-4)GlcNAc", "in_short": "as §1"}, "[41]": {"target": "Gal(a1-3)Gal(b1-3)GlcNAc(b1-3)GalNAc", "in_short": "as §1"}, "[42]": {"target": "Gal(a1-3)Gal(b1-3)GlcNAc(b1-6)GalNAc", "in_short": "as §1"}, "[43]": {"target": "Gal(a1-3)Gal(b1-3)[Fuc(a1-4)]GlcNAc(b1-2)Man(a1-3)[Gal(a1-3)Gal(b1-3)[Fuc(a1-4)]GlcNAc(b1-2)Man(a1-6)]Man(b1-4)GlcNAc(b1-4)GlcNAc", "in_short": "as §1"}, "[44]": {"target": "Gal(a1-3)Gal(b1-4)Glc", "in_short": "as §1"}, "[45]": {"target": "Gal(a1-3)Gal(b1-4)GlcNAc", "in_short": "as §1"}},
  "note": "The other results are listed elsewhere or left out.",
  "data": [
    {"binder": "B1", "values": [
      {"measurement": "glycan array binding signal (z-score)", "setting": "[1]", "value": 1.19},
      {"measurement": "glycan array binding signal (z-score)", "setting": "[2]", "value": -0.933},
      {"measurement": "glycan array binding signal (z-score)", "setting": "[3]", "value": 0.474},
      {"measurement": "glycan array binding signal (z-score)", "setting": "[4]", "value": -0.752},
      {"measurement": "glycan array binding signal (z-score)", "setting": "[5]", "value": 0.896},
      {"measurement": "glycan array binding signal (z-score)", "setting": "[6]", "value": -0.754},
      {"measurement": "glycan array binding signal (z-score)", "setting": "[7]", "value": -0.385},
      {"measurement": "glycan array binding signal (z-score)", "setting": "[8]", "value": 0.353},
      {"measurement": "glycan array binding signal (z-score)", "setting": "[9]", "value": -0.191},
      {"measurement": "glycan array binding signal (z-score)", "setting": "[10]", "value": -0.711},
      {"measurement": "glycan array binding signal (z-score)", "setting": "[11]", "value": -0.035},
      {"measurement": "glycan array binding signal (z-score)", "setting": "[12]", "value": 0.082},
      {"measurement": "glycan array binding signal (z-score)", "setting": "[13]", "value": -1.63},
      {"measurement": "glycan array binding signal (z-score)", "setting": "[14]", "value": -0.996},
      {"measurement": "glycan array binding signal (z-score)", "setting": "[15]", "value": -0.554},
      {"measurement": "glycan array binding signal (z-score)", "setting": "[16]", "value": -1.46},
      {"measurement": "glycan array binding signal (z-score)", "setting": "[17]", "value": 0.117},
      {"measurement": "glycan array binding signal (z-score)", "setting": "[18]", "value": -0.37},
      {"measurement": "glycan array binding signal (z-score)", "setting": "[19]", "value": 1.18},
      {"measurement": "glycan array binding signal (z-score)", "setting": "[20]", "value": -0.401},
      {"measurement": "glycan array binding signal (z-score)", "setting": "[21]", "value": 1.05},
      {"measurement": "glycan array binding signal (z-score)", "setting": "[22]", "value": 0.209},
      {"measurement": "glycan array binding signal (z-score)", "setting": "[23]", "value": -0.011},
      {"measurement": "glycan array binding signal (z-score)", "setting": "[24]", "value": -0.07},
      {"measurement": "glycan array binding signal (z-score)", "setting": "[25]", "value": -0.986},
      {"measurement": "glycan array binding signal (z-score)", "setting": "[26]", "value": -0.897},
      {"measurement": "glycan array binding signal (z-score)", "setting": "[27]", "value": -1.03},
      {"measurement": "glycan array binding signal (z-score)", "setting": "[28]", "value": 0.67},
      {"measurement": "glycan array binding signal (z-score)", "setting": "[29]", "value": 0.085},
      {"measurement": "glycan array binding signal (z-score)", "setting": "[30]", "value": 1.22},
      {"measurement": "glycan array binding signal (z-score)", "setting": "[31]", "value": 0.049},
      {"measurement": "glycan array binding signal (z-score)", "setting": "[32]", "value": -0.256},
      {"measurement": "glycan array binding signal (z-score)", "setting": "[33]", "value": -1.54},
      {"measurement": "glycan array binding signal (z-score)", "setting": "[34]", "value": -0.348},
      {"measurement": "glycan array binding signal (z-score)", "setting": "[35]", "value": 0.155},
      {"measurement": "glycan array binding signal (z-score)", "setting": "[36]", "value": -1.81},
      {"measurement": "glycan array binding signal (z-score)", "setting": "[37]", "value": 1.5},
      {"measurement": "glycan array binding signal (z-score)", "setting": "[38]", "value": -0.354},
      {"measurement": "glycan array binding signal (z-score)", "setting": "[39]", "value": 1.54},
      {"measurement": "glycan array binding signal (z-score)", "setting": "[40]", "value": 0.013},
      {"measurement": "glycan array binding signal (z-score)", "setting": "[41]", "value": -0.374},
      {"measurement": "glycan array binding signal (z-score)", "setting": "[42]", "value": -0.546},
      {"measurement": "glycan array binding signal (z-score)", "setting": "[43]", "value": 0.456},
      {"measurement": "glycan array binding signal (z-score)", "setting": "[44]", "value": 0.52},
      {"measurement": "glycan array binding signal (z-score)", "setting": "[45]", "value": -0.503}
    ]}
  ]
}
